Experiment [1] concerns the target T1, GFP-LGN (UniProt P81274).
T1 sequence: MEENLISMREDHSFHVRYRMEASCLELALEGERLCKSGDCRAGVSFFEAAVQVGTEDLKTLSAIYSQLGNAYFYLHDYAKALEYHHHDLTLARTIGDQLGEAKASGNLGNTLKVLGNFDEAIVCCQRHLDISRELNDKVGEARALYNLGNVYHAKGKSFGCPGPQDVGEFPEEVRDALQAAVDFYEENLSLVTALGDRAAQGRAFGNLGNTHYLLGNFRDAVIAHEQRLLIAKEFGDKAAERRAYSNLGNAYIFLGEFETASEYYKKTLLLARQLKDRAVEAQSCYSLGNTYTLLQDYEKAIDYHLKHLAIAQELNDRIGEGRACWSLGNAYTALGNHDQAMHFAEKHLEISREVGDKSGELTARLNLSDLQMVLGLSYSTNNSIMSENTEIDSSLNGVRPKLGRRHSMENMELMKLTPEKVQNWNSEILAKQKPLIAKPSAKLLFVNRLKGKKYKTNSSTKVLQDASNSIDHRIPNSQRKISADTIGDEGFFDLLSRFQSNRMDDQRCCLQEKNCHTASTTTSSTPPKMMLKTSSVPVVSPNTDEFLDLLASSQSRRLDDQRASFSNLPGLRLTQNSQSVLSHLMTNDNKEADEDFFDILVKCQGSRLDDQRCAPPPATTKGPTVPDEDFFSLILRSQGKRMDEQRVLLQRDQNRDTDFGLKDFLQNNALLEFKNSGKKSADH
Briefly: proximity ligation; Duolink PLA with GFP and ANXA1 primary antibodies in fixed GFP-LGN-expressing MCF-10A cells; interphase and metaphase cells.

In experiment [2] the target is T1, GFP-LGN. Kind of experiment: co-IP; GFP-Trap beads on lysates of MCF-10A cells stably expressing GFP-LGN, arrested in metaphase; western blotting of the immunoprecipitates. For orientation: In western blotting, separated proteins are transferred to a membrane and probed.

These are yes or no findings as the source states them, for the method shown. Binding seen in cells or lysates may run through a third protein. Some binding calls cover weakened binding; strength is not graded here. Sequences can lack the tags named with a protein.

B1: Annexin A1 (ANXA1) (protein, UniProt P04083 1-346)
chain: MAMVSEFLKQAWFIENEEQEYVQTVKSSKGGPGSAVSPYPTFNPSSDVAALHKAIMVKGVDEATIIDILTKRNNAQRQQIKAAYLQETGKPLDETLKKALTGHLEEVVLALLKTPAQFDADELRAAMKGLGTDEDTLIEILASRTNKEIRDINRVYREELKRDLAKDITSDTSGDFRNALLSLAKGDRSEDFGVNEDLADSDARALYEAGERRKGTDVNVFNTILTTRSYPQLRRVFQKYTKYSKHDMNKVLDLELKGDIEKCLTAIVKCATSKPAFFAEKLHQAMKGVGTRHKALIRIMVSRSEIDMNDIKAFYQKMYGISLCQAILDETKGDYEKILVALCGGN
For B1, the binding result in experiment [1] and in experiment [2] was “binds” throughout.

Source of the values: article PMC9834401.
